Measured data: PubChem BioAssay AID1259254 (NCATS, 2017)
The deposit covers about 59,000 reagents; shown is an unselected part. In the full data, about 1,550 (2.6%) were called active. 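G2 share is only a proxy for re-replication; each gene was hit by three separate siRNAs, and active genes were retested.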 Entries without a mark were called inactive. Reagents against one gene are numbered here. Further read-outs or replicates are left out here. No sequences are given here. Not given: the amount of reagent.

Purpose: 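Gene knock-downs that lead to re-replication, shown by excess G2 DNA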 (primary screen)
Cell system: human HCT116 colorectal cancer cells
Knock-down reagent: single siRNA against human genes
Duration: 3 days
Measurement: 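Imaged Hoechst DNA stain sorts each cell into a cycle phase by DNA amount; per plate, G2 fraction set to 0% for non-targeting and 100% for GMNN siRNA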
Reading the numbers: G2 robust z-score: higher = more G2 cells, more excess DNA replication
Hit rule: 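An siRNA counts as active if its G2 robust z-score lies at least 5 MADs above the screen median; here such calls match roughly 38% of GMNN control or more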

CERS6 #1 | G2 robust z-score: 2.32
CERS6 #2 | G2 robust z-score: 0.276
CERS6 #3 | G2 robust z-score: 1.77
OR2D2 #1 | G2 robust z-score: 2.96
OR2D2 #2 | G2 robust z-score: 0.332
OR2D2 #3 | G2 robust z-score: -0.489
SH3KBP1 #1 | G2 robust z-score: 2.01
SH3KBP1 #2 | G2 robust z-score: 2.4
SH3KBP1 #3 | G2 robust z-score: -0.464
ACYP1 #1 | G2 robust z-score: 1
ACYP1 #2 | G2 robust z-score: -0.461
ACYP1 #3 | G2 robust z-score: 3.73
PNPLA2 #1 | G2 robust z-score: -0.823
PNPLA2 #2 | G2 robust z-score: 1.27
PNPLA2 #3 | G2 robust z-score: -0.232
RAB24 #1 | G2 robust z-score: -0.437
RAB24 #2 | G2 robust z-score: -1.03
RAB24 #3 | G2 robust z-score: 2.81
